Measured values reported in PubChem BioAssay (NCATS).
This list holds what a sample rich in hits left over. Results filed as inconclusive are left out. The source made the active and inactive calls. Calls follow the shape of the dose curve; as a rule, active = well fitted inhibition curve with a large enough effect; inconclusive = small, poorly fitted or top-dose-only effect; inactive = flat fitted curve, though single readings scatter.

Assays:
Test in all cases: qHTS profiling for inhibitors of Plasmodium falciparum proliferation (AID 504749);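 also: 0% = DMSO vehicle and full inhibition = artemisinin control; nearly all actives have a fitted effect of over 60% in size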
Settings in all cases: P. falciparum in erythrocytes, SYBR Green DNA, 72 h; at 28.7 µM (top of the series)
SC27B = test system: SC27B
How it was run: (§1)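 Parasite proliferation within erythrocytes, 72 h exposure. Endpoint: SYBR Green I fluorescence after overnight lysis at room temperature. Controls: 0.29 uM artemisinin, DMSO.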

TAB109 = test system: TAB109
How it was run: as §1

TAB113 = test system: TAB113
How it was run: as §1

TAB165 = test system: TAB165
How it was run: as §1

W2 = test system: W2
How it was run: as §1

Measured: activity, negative = inhibition

CC(C)(C)c1ccc(O)cc1
inactive: SC27B -0.172% | TAB109 = -0.162% | TAB113 = 2.47% | TAB165 = 14.8% | W2 = 14.5%
